According to publication PMC11298252:
These are yes or no findings as the source states them, for the method shown. In cells and extracts the contact can be indirect. Some results given as binding are weak or reduced against the parent protein; the word gives no strength. Sequences can lack the tags named with a protein.

Chains of the proteins cited; added tags and fusions are not shown.
UniProt O15260: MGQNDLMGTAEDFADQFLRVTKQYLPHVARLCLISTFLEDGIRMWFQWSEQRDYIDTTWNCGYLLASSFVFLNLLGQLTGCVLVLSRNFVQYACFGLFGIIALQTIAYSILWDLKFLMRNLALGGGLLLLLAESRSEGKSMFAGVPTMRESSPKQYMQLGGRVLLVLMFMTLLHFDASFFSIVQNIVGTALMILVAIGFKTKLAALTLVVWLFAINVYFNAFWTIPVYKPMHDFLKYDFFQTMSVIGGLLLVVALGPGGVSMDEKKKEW

Molecular target: Myc-DDK-tagged Surf4 (UniProt O15260)
Assay: co-IP; HepG2 cells co-transfected with HA-SAA1 and Myc-DDK-Surf4, treated with sodium azide and D-glucose, cross-linked with a membrane-permeable reversible crosslinker; RIPA lysate applied to anti-Myc antibody-conjugated beads; immunoblotting

B1: HA-tagged serum amyloid A1 (SAA1) (protein, UniProt P0DJI8 19-122)
chain: RSFFSFLGEAFDGARDMWRAYSDMREANYIGSDKYFHARGNYDAAKRGPGGAWAAEVITDARENIQRFFGHGAEDSLADQAANEWGRSGKDPNHFRPAGLPEKY
- binding: binds
